In publication PMC7819943, “Rice protein-binding microarrays: a tool to detect cis-acting elements near promoter regions in rice”:
The list shows a part of the results.

Chains of the proteins cited; added tags and fusions are not shown.
UniProt Q0JBA9, entry or part of it: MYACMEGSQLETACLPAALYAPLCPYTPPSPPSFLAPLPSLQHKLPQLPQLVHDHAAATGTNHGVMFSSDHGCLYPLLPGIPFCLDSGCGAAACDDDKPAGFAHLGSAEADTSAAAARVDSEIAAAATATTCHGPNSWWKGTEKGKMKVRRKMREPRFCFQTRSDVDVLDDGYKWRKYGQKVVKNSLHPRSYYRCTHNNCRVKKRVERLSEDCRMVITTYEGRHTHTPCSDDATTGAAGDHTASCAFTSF

Target: OsWRKY34 (Oryza sativa, UniProt Q0JBA9 1-250)
Assay: protein-binding microarray (RPBM); PBS, 2% BSA, 51.3 ng/ul salmon testes DNA, 50 uM zinc acetate, 200 nM TF, 25 C, 1 h; high values mean tight binding
Conditions: protein: recombinant; tags: N-terminal polyhistidine and DsRed monomer fusion (pET32a); label: CyDye5-dUTP incorporated in the synthesized complementary strand; 3' TTTTT single-stranded linker to array surface; dsDNA, one strand shown
Summary of the method: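 For the binding signal, per-feature fluorescence intensity was read in arbitrary units on an Axon 4000B scanner. Before scanning, a 2% BSA-blocked custom Agilent array made double-stranded with Cy5-dUTP was washed after 1 h at 25 °C with 200 nM protein and 50 µM zinc acetate. The proteins were Ni–NTA-purified transcription factors with N-terminal polyhistidine and DsRed fusions, expressed in E. coli BL21-CodonPlus.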

Sequence	binding signal
CCGCCTCCGCCGACGTGCGCTGCGGCCCACCTTTGCTTCTCGGAGTCACCTAGTGCAG	8500 fluorescence intensity (a.u.)
ATGGATCTCAGTGTTTATCACTCACACATCTTACATTCACCGGAGTCACCTAGTGCAG	8030 fluorescence intensity (a.u.)
GTTAGTAGATAGCTTTGCTCTCTTTCTCTTCATTTAATCTCGGAGTCACCTAGTGCAG	9320 fluorescence intensity (a.u.)
ACCTAGTACGTATACACCTCAATCCATTATAAATAGCAACCGGAGTCACCTAGTGCAG	8280 fluorescence intensity (a.u.)
CATATGTTGTTTTCTATTTCCCACTAATTTTCGTCATTTTCGGAGTCACCTAGTGCAG	10400 fluorescence intensity (a.u.)
ATTATCTTTGGTCTTGATGTATAAACTTATATGATGATCACGGAGTCACCTAGTGCAG	8320 fluorescence intensity (a.u.)
GCTCTCTACTTTATTGATGCACAATACTAGTACAATTAATCGGAGTCACCTAGTGCAG	8260 fluorescence intensity (a.u.)
TAATTGTTACCCTGGAAGCACCTGACATTATTGCATTGGACGGAGTCACCTAGTGCAG	8230 fluorescence intensity (a.u.)
TTATAGCCCGCTGCTTTTCTCTCTCTTTCTTTTCATTTTACGGAGTCACCTAGTGCAG	8070 fluorescence intensity (a.u.)
AACAACTCTCGCGCCCTCGCCTCGCCTCGCCGCCTTTTCTCGGAGTCACCTAGTGCAG	14500 fluorescence intensity (a.u.)
AGACGAGCAGAGTAGTTCAGTTGTTAGTATTGTCCTCTTTCGGAGTCACCTAGTGCAG	8320 fluorescence intensity (a.u.)
GATGTGTTGGCTGTCTTTGTTTTTTTTTTCCTGGTTTACCCGGAGTCACCTAGTGCAG	14000 fluorescence intensity (a.u.)
CATTGGTTGACTCTGCACCTGCTCTTACTTGCTCGAGTGACGGAGTCACCTAGTGCAG	9360 fluorescence intensity (a.u.)
GTTAGTTGGCTGACTCCACACGCCTCGCCGTCTCAGTGTCCGGAGTCACCTAGTGCAG	9100 fluorescence intensity (a.u.)
TTGATTCTGTTAGAGTCACGCACATGACCTCGCTGGTTTTCGGAGTCACCTAGTGCAG	9710 fluorescence intensity (a.u.)
TTTGACAGTTTGCCAGATGCTGCCTACCAACCCACAAAACCGGAGTCACCTAGTGCAG	9230 fluorescence intensity (a.u.)
CTGTAGTCCGCTACTCTTATCTTTTATCTTTTTTATTTTACGGAGTCACCTAGTGCAG	8500 fluorescence intensity (a.u.)
AATTACTGTCATGATTTGAATTTGCAATCATTTCCTGTACCGGAGTCACCTAGTGCAG	10300 fluorescence intensity (a.u.)
GCCAACCCTTCCCATCAAATCTGGTCAAATCTTCTCTATCCGGAGTCACCTAGTGCAG	8100 fluorescence intensity (a.u.)
TGGAGGTGGAGGTCGCGGTGATTTGGTGTAGTAGTAGTAGCGGAGTCACCTAGTGCAG	8660 fluorescence intensity (a.u.)
GTCCCCAACTCTGACTGTCCCCACGTTTTCAGGCTGTTTGCGGAGTCACCTAGTGCAG	8340 fluorescence intensity (a.u.)

Single values from the results shown.
binding signal with ACCTAGTACGTATACACCTCAATCCATTATAAATAGCAACCGGAGTCACCTAGTGCAG is entered as 8280 fluorescence intensity (a.u.)
binding signal with TTTGACAGTTTGCCAGATGCTGCCTACCAACCCACAAAACCGGAGTCACCTAGTGCAG is entered as 9230 fluorescence intensity (a.u.)
binding signal with GTTAGTTGGCTGACTCCACACGCCTCGCCGTCTCAGTGTCCGGAGTCACCTAGTGCAG is entered as 9100 fluorescence intensity (a.u.)
binding signal with ATGGATCTCAGTGTTTATCACTCACACATCTTACATTCACCGGAGTCACCTAGTGCAG is entered as 8030 fluorescence intensity (a.u.)

Next entries follow.

Sequence	binding signal
GCTTTACTTCAGCCTACTGTCCTGAGCACCTGATCGTACACGGAGTCACCTAGTGCAG	12100 fluorescence intensity (a.u.)
CAGATCGACTCGACTCGACCAGGTTCTCTCGTTTTTACTCCGGAGTCACCTAGTGCAG	9940 fluorescence intensity (a.u.)
TTGAACACCCGTGCCGACGGACGGCCTACTTCTTTCTCATCGGAGTCACCTAGTGCAG	9940 fluorescence intensity (a.u.)
CTTATACTTTATATCAATTATGTTATTTCTCATCATCGTACGGAGTCACCTAGTGCAG	8420 fluorescence intensity (a.u.)
TGTGTGTGTATATATATGTAGCCTGTTCGCACATCATCTTCGGAGTCACCTAGTGCAG	13600 fluorescence intensity (a.u.)
CACCGCCCACCTCCGCCGCCGCCAACCCGCCGCCCACGCGCGGAGTCACCTAGTGCAG	14000 fluorescence intensity (a.u.)
GTACGTTGGTTTCCTCTTGGAGTTTTACACGAAGGAATTGCGGAGTCACCTAGTGCAG	8630 fluorescence intensity (a.u.)
TCTTCCCGGTTTCTCTTTCCAGCTTTCACTTTGACCTTAGCGGAGTCACCTAGTGCAG	12400 fluorescence intensity (a.u.)
CGCCGCGCAGCTCGCCCGGGACGTCGCCCGTCTCCAGCCGCGGAGTCACCTAGTGCAG	8070 fluorescence intensity (a.u.)
TGTGTAATCCTTTTACGCGTTGGCGAAAATACTTTACGATCGGAGTCACCTAGTGCAG	8360 fluorescence intensity (a.u.)
GGAAGGCAGGAAAGCCATCTGTTTTTTTTTTTCCTTTCACCGGAGTCACCTAGTGCAG	8870 fluorescence intensity (a.u.)
CCTCCTCGCCCACCACCCCTCGACCTGCGAAGCCAAACAACGGAGTCACCTAGTGCAG	8620 fluorescence intensity (a.u.)
GTCTATCTATCTATCTATCCATCTACTCACTCCATCCTAACGGAGTCACCTAGTGCAG	8300 fluorescence intensity (a.u.)
TTGCGGCTAGGGCTTTCGGGGTTTTCCTCTTTTTCAAATTCGGAGTCACCTAGTGCAG	10000 fluorescence intensity (a.u.)
CGACTTGTGCACCCATAACATCCTCATCTCCTGCTGCTGCCGGAGTCACCTAGTGCAG	8670 fluorescence intensity (a.u.)
GCCCGCGCCGTCTACCAGGACGCCGACGTCTACCTCCTCGCGGAGTCACCTAGTGCAG	8470 fluorescence intensity (a.u.)
TGTTTGTGAATATTTTCTGCTGGCTACTCCTAATAATAAGCGGAGTCACCTAGTGCAG	9610 fluorescence intensity (a.u.)
CTTTTTCTTGAGAATTTCTGTCTGAAGAAATTGCTTAGTACGGAGTCACCTAGTGCAG	15700 fluorescence intensity (a.u.)
TGTTCCTTCCGGCCCAGCCCACCGCGTCGCGCCTGTCCCACGGAGTCACCTAGTGCAG	9110 fluorescence intensity (a.u.)
TAATAGCAGGTACAACACTACTACGCAACTCATTTTCCTGCGGAGTCACCTAGTGCAG	9180 fluorescence intensity (a.u.)
TCTGGTTGATTGATCGATTTGGGGAATTGGGGATCTAGCTCGGAGTCACCTAGTGCAG	12000 fluorescence intensity (a.u.)
